Measurements from the supplement of paper PMC5407854, “Inhibitor of ppGalNAc-T3-mediated O-glycosylation blocks cancer cell invasiveness and lowers FGF23 levels” (eLife, 2017).
Whole data set: some 1,700 compounds, median “T3 sensor activation Q score (MG/GFP ratio z-score vs DMSO controls)” near 0.25, cut for the highest 2% near 1.9. This is one part of the list.

These compounds were tested on ppGalNAc-T3 sensor (assay: T3 sensor activation Q score (MG/GFP ratio z-score vs DMSO controls) (SD units); higher = more sensor activation (inhibition of ppGalNAc-T3 glycosylation)). Conditions: HEK293 sensor cells; 10 µM; 6 h.
Method: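 Cells were treated with compound at 10 uM for 6 h, then MG/GFP ratio was read by flow cytometry (10,000 cells per well, duplicate wells). Q = (R - R_neg)/SD_neg relative to DMSO vehicle controls; the signal rises when the glycosyltransferase is inhibited.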

Compound	T3 sensor activation Q score
O=C1c2ccccc2C(=O)c2c1cccc2-n1nnc2ccccc21	1.65
C[C@]12CC[C@H](O)CC1=CC[C@@H]1[C@@H]2CC[C@]2(C)c3[nH]ncc3C[C@@H]12	0.6
Cc1ccc(NC(=O)Nc2cccnc2)cc1NC(=O)Nc1cccnc1	0.95
C#CCOCC1CN(c2ccccc2)C(=O)O1 (stereo unspecified)	1.9
CC(=C/c1ccccc1)/C=C1/NC(=S)NC1=O	0.6
O=C1c2ccccc2C(=O)C1c1ccccn1	-1
Cc1ccc(NC(=O)NNC(=O)CSC2CCc3ccccc32)c(C)c1 (stereo unspecified)	-0.55
CC1(C)OC2C(CO)OC(n3cnc4c(=S)nc[nH]c43)C2O1 (stereo unspecified)	0.4
COc1ccc(NC(=O)c2cc3ccc4c5ccccc5[nH]c4c3cc2O)cc1	-0.3
C=CCSc1n[nH]c(-c2cccs2)n1	0.35
c1ccc2c(c1)-c1cccc3cncc-2c13	0.5
CC(C)(C)N1CCC1CN (stereo unspecified)	1.8
N#CC1=CC2CN(Cc3ccccc3)C1C1C(=O)N(c3ccccc3)C(=O)C21 (stereo unspecified)	0.45
O=C(c1cccnc1)N1CCN(c2ccccc2Cl)CC1	-0.05
S=C1N(c2ccccc2)CN(C2CCCCC2)CN1c1ccccc1	0.75
NC(=O)C(=Cc1ccncc1)c1cccc2ccccc12	-1.2
CO[C@H]1C[C@@H]2CC[C@@H](C)[C@@](O)(O2)C(=O)C(=O)N2CCCC[C@H]2C(=O)O[C@H]([C@H](C)C[C@@H]2CC[C@@H](O)[C@H](OC)C2)CC(=O)[C@H](C)/C=C(\C)[C@@H](O)[C@@H](OC)C(=O)[C@H](C)C[C@H](C)/C=C/C=C/C=C/1C	0
OC(c1ccccc1)(c1ccccc1)c1nccn1-c1ccccc1	0
CN(C)S(=O)(=O)c1ccccc1N=C=S	-1.15
NCCN1CCNCC1	1.85
Cc1nc2ccccc2nc1N1CCCC1	0
COc1cc(C(=O)OC(C)CN2CCOCC2)cc(OC)c1OC (stereo unspecified)	1.25
O=S(=O)(O)c1ccc(N=Nc2ccccc2)cc1	1
Cc1ccc(S(=O)(=O)NC(=O)Nc2nccs2)cc1	0.2
CC1=CN2C(c3cccc([N+](=O)[O-])c3)=NON(c3ccc(C)cn3)C2C=C1 (stereo unspecified)	0.45

Compound	T3 sensor activation Q score
c1ccc(-c2cc3ccccc3[nH]2)cc1	0.45
COc1ccc(C(=O)O)nc1C	-1.45
Nc1ccc(N=Nc2ccccc2Cl)c(N)n1	1.7
O=c1c(-c2ccc(O)cc2)coc2cc(O)cc(O)c12	-0.45
Cc1cc(NC(=O)c2ccccc2)nc(C)n1	0.05
COc1ccccc1C1OC2=C(Nc3ccc([N+](=O)[O-])cc3N2)C1=O (stereo unspecified)	0.85
COc1ccc(/C(C#N)=C/c2cccnc2)cc1	0.15
CCNc1nn2ccccc2c1C=C(C#N)C(=O)OCC	1.55
O=C(Cn1ccc(=O)[nH]c1=O)Nc1nccs1	0.2
FC(F)(F)c1nc2nc(Cl)c(Cl)nc2n1CCCN1CCOCC1	1.75
Nc1ccc(NC(=S)Nc2ccccc2)cc1	1.8
COc1cc2c(c3c1c(=O)c1cccc(F)c1n3C)C=CC(C)(C)O2	-1.6
Cn1[nH]cc(/C=N/C(N)=O)c1=O	-0.85
O=C(O)CCNC1CCCCC1	-1.8
Nc1ccc2c(c1)Cc1cc(Cl)c(Cl)cc1-2	-0.65
O=C(Nc1csnn1)c1csnn1	0.95
CC(C)(C)CC(C)(C)N1CNC(=S)NC1	1.1
CCc1c2c(nc3ccc(OC(=O)N4CCC(N5CCCCC5)CC4)cc13)-c1cc3c(c(=O)n1C2)COC(=O)[C@]3(O)CC	-1
Cc1cn(C2CC(O)C(CO)O2)c(=O)n(Cc2ccccc2)c1=O (stereo unspecified)	0.1
CC(C)(C)n1nc(C2CC2)cc1NC(=O)Nc1ccc(Cl)cc1	0.7
CCC1=C[C@@H]2CN(C1)Cc1c([nH]c3ccccc13)[C@@](C(=O)OC)(c1cc3c(cc1OC)N(C)[C@H]1[C@@](O)(C(=O)OC)[C@H](OC(C)=O)[C@]4(CC)C=CCN5CC[C@]31[C@@H]54)C2	0.7
CSc1nc(=S)c2[nH]c(=S)[nH]c2[nH]1	0.35
Cc1cnc2cc(Cl)ccc2c1SCC(=O)O	0.5
S=c1c2[nH]cnc2ncn1CCSc1ncnc2nc[nH]c12	1.2
NC(=O)c1ccccc1NC(=O)COc1ccc(Cl)cc1	0.55

Of the compounds above, these contain a nitro group on carbon.
Compound	T3 sensor activation Q score
CC1=CN2C(c3cccc([N+](=O)[O-])c3)=NON(c3ccc(C)cn3)C2C=C1 (stereo unspecified)	0.45
COc1ccccc1C1OC2=C(Nc3ccc([N+](=O)[O-])cc3N2)C1=O (stereo unspecified)	0.85

Remaining list, next part:

Compound	T3 sensor activation Q score
COC1C(=O)CCC2(CO2)C1(O)C1(C)OC1CC=C(C)C (stereo unspecified)	-1.6
O=C(NC(=S)Nc1cc(Cl)ccc1O)c1cccc(Br)c1	1.4
CC1(c2ccccc2)O[C@@H]2C[C@H]3[C@@H]4CCC5=CC(=O)C=C[C@]5(C)[C@@]4(F)[C@@H](O)C[C@]3(C)[C@]2(C(=O)CO)O1 (stereo partly specified)	3.35
Cc1cc2c(cc1C)N(C(=O)CCl)CC(=O)N2	-0.8
CC(C)CC(NC(=O)OCc1ccccc1)C(=O)NC(Cc1c[nH]c2ccccc12)C(=O)O (stereo unspecified)	-0.85
N.N.O=C([O-])C1(C(=O)[O-])CCC1.[Pt+2]	0.65
NCC(=O)c1cccc2ccc[n+]([O-])c12	0.6
COc1ccccc1/C=C1\Cc2ccccc2C1=O	-0.95
Cc1cc2c(cc1C)NC1=C(N2)OC(c2cccc(O)c2)C1=O (stereo unspecified)	0.55
O=c1n(CC2CO2)c(=O)n(CC2CO2)c(=O)n1CC1CO1 (stereo unspecified)	0.8
O=[N+]([O-])C1C(c2ccccc2)C12c1ccccc1-c1ccccc12 (stereo unspecified)	3.55
CC(C)(C(N)=O)c1ccccc1	1.3
NC(=NOC(=O)c1ccccc1)C(Cc1ccccc1)C(=O)NOC(=O)c1ccccc1 (stereo unspecified)	-1.75
CSc1nsc(NN)n1	-0.25
O=[N+]([O-])c1ccc(NN=C(c2ccccc2)c2ccccc2)nc1	-0.4
O=C(Nc1ccc(Cl)c(Cl)c1)Nc1ccccc1O	-1.1
O=C(O)C1CCC(=O)N1C(=O)OCc1ccccc1 (stereo unspecified)	0.1
OCC1(CO)COC2(CCCC2)N1	0.35
N#C/C(=C\c1ccc(C#N)cc1)C(=O)c1ccccc1	0.75
CC(NC(=O)c1ccc(Cl)c(Cl)c1)c1ccc(-c2ccccc2)cc1 (stereo unspecified)	0.25
Cc1ccc(C)c(N2CCN(c3ccncc3N)CC2)c1	-1.25
CNNCc1ccc(C(=O)NC(C)C)cc1	1.85
CC1=CC(=O)C(C(C)=Nc2ccccc2Cl)C(=O)O1 (stereo unspecified)	1.35
O=c1[nH]c(=O)n([C@H]2C[C@H](O)[C@@H](CO)O2)cc1F	0.9
NS(=O)(=O)c1ccc(Cl)cc1[N+](=O)[O-]	-0.35

Already shown: 2 of the compounds above.
Compound	T3 sensor activation Q score
CC(NC(=O)c1ccc(Cl)c(Cl)c1)c1ccc(-c2ccccc2)cc1 (stereo unspecified)	0.25
Cc1ccc(C)c(N2CCN(c3ccncc3N)CC2)c1	-1.25

Later entries:

Compound	T3 sensor activation Q score
CCn1c2ccccc2c2cc(NC(=O)Nc3ccc([N+](=O)[O-])cc3C)ccc21	-0.65
Nc1ncnc(N2CCOCC2)n1	0.45
Nc1cc(=O)[nH]c2ncnn12	-0.15
O=C1CCC(NC(=O)c2ccccc2)C(=O)N1 (stereo unspecified)	-0.05
N#C/C(=C\c1c[nH]c2ccccc12)C(N)=O	1.4
CCOC(=O)/C(C#N)=C1\SS/C(=C(/C#N)C(=O)OCC)S1	0.55
Nc1ccc(NC(=O)Nc2ccc(N)cc2)cc1	-0.15
O=C(Nc1cccc2ccccc12)c1ccccc1	-0.45
CSc1nc(N)c(C(=O)Nc2ccc([N+](=O)[O-])cc2)s1	1.45
O=C1COc2c1ccc(O)c2O	0.8
CN(C)c1nc(=Nc2cccc(Cl)c2)ss1	0.4
Nc1ncncc1-c1ccc2ccccc2c1	0.45
CN(C)c1ncnc2c1ncn2-c1ccccc1	-0.6
CC(=O)Oc1ccc(OC(C)=O)c2c1CC1(C)OC1(C)C2 (stereo unspecified)	1.55
Cc1[nH]c(=S)[nH]c(=O)c1Cc1c(O)ccc2ccccc12	0.25
CCN1CCCCC(=NO)C(=NO)CCCC1	0.8
NC(=O)N/N=C1\CC2CC1C1C=CCC21 (stereo unspecified)	0.75
COc1cc(NC(=O)CCl)ccc(=O)c1	1.75
O=C(OCC(O)COC(=O)c1cccnc1)c1cccnc1	0.25
O=C(O)c1ccccc1-c1ccccc1C(=O)Nc1ccc2c(c1)[nH]c(=O)c1ccccc12	-0.3
NC(N)=N/N=C\c1c(Cl)cccc1Cl	-1
c1ccc(-c2nc(-c3nccc4ccccc34)oc2-c2ccccc2)cc1	0.35
CCOC(=O)C(=O)C1C(=O)Nc2ccccc21 (stereo unspecified)	1.65
CC(C)C[C@H](NC(=O)[C@H](CCc1ccccc1)NC(=O)CN1CCOCC1)C(=O)N[C@@H](Cc1ccccc1)C(=O)N[C@@H](CC(C)C)C(=O)[C@@]1(C)CO1	-0.4
O=[N+]([O-])c1ccccc1/C=C/C=N/N=C/c1ccccc1O	0.9

Compound	T3 sensor activation Q score
O=C(O)C(Cc1ccccc1N(CCO)CCO)N1C(=O)c2ccccc2C1=O (stereo unspecified)	-0.35
O=[N+]([O-])c1cccc(-c2nc3ccccc3s/c2=N/O)c1	1.3
O=C(O)c1c[nH]n2c(=S)ncnc12	-1.05
Nc1ccc(Oc2ccc(N)c([N+](=O)[O-])c2)cc1[N+](=O)[O-]	1.15
Cc1ccc(NC(=S)NC(=O)c2ccccc2)cc1NC(=S)NC(=O)c1ccccc1	-0.35
O=C(c1cccnc1)C1Cc2ccccc2C1=O (stereo unspecified)	1.6
Nc1ccc(N=Nc2ccccc2)c2ccccc12	-1.25
Cc1nc(N)nc(Nc2ccc(C#N)cc2)c1Br	-0.95
CN(C)S(=O)(=O)N1C(=O)c2ccccc2C1=O	0.9
CCCCN1C(=O)CC(C(=O)OCC)=C1C	-1.5
CCN(CC)Cc1cc2[nH]c3c4ccc(Cl)cc4ncc3c2cc1OC	1.9
O=C1c2ccccc2C(=O)N1c1ncn[nH]1	-1.75
CSc1ccc(NC(=O)Nc2cc(C)ccn2)cc1	-1.2
Cc1cc(NC(=O)Nc2cccc3ccccc23)no1	-0.6
CCOC(=O)Nc1csnn1	-0.7
O=C(Nc1ccc(Nc2ccncc2)cc1)c1ccc([N+](=O)[O-])cc1	0.75
Cc1cc(=O)c2cc(C(=O)c3ccccc3)ccc2[nH]1	0.05
COc1ccc(NC2=CC(=S)NC(C)(C)C2)cc1	1
COc1ccc(Nc2cc(Cl)ccc2C(=O)O)cn1	1.4
COc1cc(NC(C)=O)c2ncccc2c1NC(C)=O	1.2
CCOC(=O)c1ccc2c(c1)NCc1cccc(OC)c1O2	1.15
